# Laboratory results taken from PubChem BioAssay AID445 (National Center for Advancing Translational Sciences (NCATS), 2006).
# Some of the results follow. Further columns of the screen follow, without active or inactive calls. Compounds called inactive in the main read-out are mostly missing here. Words in brackets tell the shape of the fitted curve; partial curves, single points and poor fits give uncertain potencies.
# Test: IkB Signaling
# Conditions: ABC-DLBCL IkBa-CBG/CBR dual luciferase ratio (green luciferase fused to IkBa over red control in OCI-Ly3 lymphoma cells), 4 h
# Procedure, shortened: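 Curves were fitted separately to fusion (green), unfused (red) and ratio luminescence, then classed by r2, magnitude and activity. Cells: OCI-Ly3, 4 h compound plus doxycycline at 37C; 10 uM MG-132 defined full response.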
# [1] = measured here: control luc red channel unless noted
# [2] = measured here: IkB-luc green channel
# [3] = measured here: control luc red channel
smiles,measurement,setting,value
Cc1ccc2c(c1)N(C(=O)CCC(=O)NCc1ccccc1F)CC(C)O2 (stereo not given),AC50,[1],"2 µM [rising, partial curve, poor fit]"
CCOC(=O)c1ccc2c(c1)N(Cc1cc(C)ccc1C)C(=O)c1ccccc1S2(=O)=O,AC50,[1],"7.94 µM [rising, single point]"
Cc1cc(C)cc(NC(=O)[C@H]2O[C@@H]3OC(C)(C)O[C@@H]3[C@H]3OC(C)(C)O[C@H]32)c1,AC50,[1],"20 µM [falling, partial curve]"
CCCCN(CC)C(=O)CSc1nc2c(sc3ccccc32)c(=O)n1CCc1ccccc1,AC50,[1],"39.8 µM [falling, single point]"
CCOc1cccc(NC(=O)C2CC(=O)N(C)C(=Nc3ccccc3)S2)c1 (stereo not given),AC50,[1],"31.6 µM [falling, partial curve]"
COC(=O)c1scc(-c2ccc(C)cc2)c1S(=O)(=O)N1CCN(c2cccc(Cl)c2)CC1,AC50,[1],"2 µM [falling, partial curve]"
CC(=O)N1CCc2c(sc3c2c(=O)n(-c2ccccc2C)c(=O)n3CC(=O)Nc2ccccc2)C1,AC50,[1],"0.2 µM [falling, full curve]"
Cn1c(=O)sc2cc(NS(=O)(=O)c3ccc(C(C)(C)C)cc3)ccc21,AC50,[1],"0.00501 µM [falling, full curve, poor fit]"
Cc1ccc(S(=O)(=O)c2nc(-c3cccs3)oc2N2CCC(C)CC2)cc1,AC50,[1],"39.8 µM [falling, single point]"
COc1ccc(C(=O)NCc2cn3ccc(C)cc3n2)cc1,AC50,[1],"0.2 µM [rising, full curve, poor fit]"
Cc1c(C(=O)Nc2c(F)cccc2F)sc2ncn(Cc3ccccc3F)c(=O)c12,AC50,[1],"10 µM [falling, partial curve]"
N#Cc1cccc(-n2nnnc2-c2ccccn2)c1,AC50,[1],"12.6 µM [rising, partial curve]"
COc1cc2c(cc1OC)C(COc1cc(C)cc(C)c1)N(C(=O)C(C)(C)C)CC2 (stereo not given),AC50,[1],"39.8 µM [falling, single point]"
CCC(Nc1ccc(-c2nc(-c3ccccn3)no2)cc1[N+](=O)[O-])c1ccccc1 (stereo not given),AC50,[1],"15.8 µM [falling, partial curve]"
Cc1cccc(N2CCn3c2nc2c3c(=O)n(CCCc3ccccc3)c(=O)n2C)c1,AC50,[1],"12.6 µM [falling, partial curve]"
O=C(CCCCCn1c(=O)c2sccc2n(CC(=O)Nc2ccccc2F)c1=O)NCc1ccc2c(c1)OCO2,AC50,[1],"6.31 µM [falling, partial curve, poor fit]"
CC(C)Cc1ccc(S(=O)(=O)N2CCN(C(=O)c3ccco3)CC2)cc1,AC50,[1],"7.94 µM [falling, full curve, poor fit]"
COC(=O)c1ccc(N2C(=O)CC(Sc3n[nH]c(C)n3)C2=O)cc1 (stereo not given),AC50,[1],"20 µM [falling, partial curve]"
Nc1c(S(=O)(=O)c2cccc(Cl)c2)c2nc3ccccc3nc2n1/N=C/c1ccc(O)c(O)c1,AC50,[1],"12.6 µM [falling, partial curve]"
Cn1c(=O)oc2cc(S(=O)(=O)CCC(=O)NCc3ccc(Cl)cc3)ccc21,AC50,[1],"6.31 µM [falling, single point]"
Cc1nn(C(=O)c2cccs2)c(N)c1-c1ccccc1,AC50,[1],"2 µM [rising, partial curve]"
Cc1nn(C)c(C)c1CNC(=O)c1nn2c(c1Cl)NC(c1cccs1)CC2C(F)(F)F (stereo not given),AC50,[1],"15.8 µM [falling, partial curve]"
CCOCCn1ccc2c(OCC(=O)Nc3cc(C)cc(C)c3)cccc2c1=O,AC50,[1],"3.16 µM [rising, single point]"
Cc1ccc(NC(=O)N2CC=C(c3c[nH]c4ccccc34)CC2)cc1Cl,AC50,[1],"10 µM [falling, partial curve]"
Cc1ccc(NS(=O)(=O)c2ccc(-n3cccn3)cc2)c(Br)c1,AC50,[1],"12.6 µM [falling, partial curve]"
COc1ccc(CC(=O)Nc2nccs2)cc1OC,AC50,[1],"39.8 µM [falling, single point]"
CCOc1ccccc1C(=O)Nc1cccc(-c2nc3ccccc3s2)c1,AC50,[1],"39.8 µM [falling, partial curve]"
COc1ccc(-c2cn3c(n2)sc2cc(C(=O)NCCc4ccccc4)ccc23)cc1,AC50,[1],"25.1 µM [falling, single point]"
Cc1cccc2sc(NC(=O)CNS(=O)(=O)c3ccc(Br)s3)nc12,AC50,[2],"39.8 µM [rising, single point]"
same,AC50,[3],"15.8 µM [falling, partial curve]"
O=C(OCc1cc(=O)n2nc(C3CC3)sc2n1)c1cccc(NC(=O)c2ccccc2Cl)c1,AC50,[1],"25.1 µM [falling, partial curve]"
COc1ccc(-n2ncc(C(=O)NCc3cccs3)c2C2CCN(C(=O)OC(C)(C)C)CC2)cc1,AC50,[1],"25.1 µM [falling, partial curve]"
CCc1ccccc1N(CC)C(=O)c1cc2c(s1)-c1ccccc1SC2,AC50,[1],"15.8 µM [falling, partial curve]"
O=C(Nc1ccncc1)c1c(F)cccc1F,AC50,[1],"10 µM [falling, partial curve]"
Cn1c(SCc2ccc(F)cc2)nc2ccc(C(=O)NCc3cccc(Cl)c3)cc21,AC50,[1],"10 µM [falling, partial curve]"
COc1ccc2c(CNC3CCC(C)CC3)c(C(=O)O)n(Cc3ccc(F)cc3)c2c1 (stereo not given),AC50,[1],"15.8 µM [falling, partial curve]"
Cc1ccc(C(=O)NCCc2csc(-c3cccc(F)c3)n2)cc1C,AC50,[1],"31.6 µM [falling, single point]"
COc1ccc(-c2noc(CN(C(=O)c3ccc(C)cc3C)C(C)C)n2)cc1,AC50,[1],"20 µM [falling, partial curve]"
CCOC(=O)c1ccccc1NC(=O)CSc1ccc(-c2sc(C)nc2C)nn1,AC50,[1],"0.00631 µM [rising, full curve, poor fit]"
CCN(C(=O)c1c(C)oc2ncnc(N3CCCCC3)c12)c1cc(C)ccc1C,AC50,[1],"39.8 µM [falling, single point]"
CCOC(=O)c1cnc2c(ccc3ccccc32)c1Nc1ccccc1O,AC50,[1],"6.31 µM [falling, full curve]"
COc1ccc(CNC(=O)C2CCN(S(=O)(=O)c3cccc(-c4noc(C)n4)c3)CC2)cc1,AC50,[1],"5.01 µM [rising, partial curve]"
COc1ccccc1NC(=O)CSc1nnc(-c2ccoc2C)n1CCc1ccccc1,AC50,[1],"10 µM [falling, partial curve]"
Cc1cccc(Cn2c(CN3CCC(C(=O)NC(C)C)CC3)cc3ccccc32)c1,AC50,[1],"5.01 µM [falling, partial curve]"
Cc1ccc(NC(=O)CSCc2cc(=O)c3ccccc3[nH]2)c(C)c1,AC50,[1],"3.16 µM [falling, single point]"
Cn1c(=O)c2c(SCc3cccnc3)nc(CC(C)(C)C)nc2n(C)c1=O,AC50,[1],"20 µM [falling, partial curve]"
COc1ccc(CNC(=O)c2cc(-c3ccccc3O)n[nH]2)cc1,AC50,[1],"3.16 µM [falling, partial curve]"
Cc1cccc(Nc2nc(-c3ccccc3)nc3ccccc23)c1,AC50,[2],"20 µM [falling, partial curve]"
same,AC50,[3],"20 µM [falling, partial curve]"
O=S(=O)(c1ccccc1)n1nc(-c2ccco2)nc1NCc1ccccc1,AC50,[1],"20 µM [falling, partial curve]"
CCC(Sc1nnc(-c2ccc(F)cc2)c(-c2ccc(F)cc2)n1)C(=O)NC1CCCC1 (stereo not given),AC50,[1],"25.1 µM [falling, single point]"
COc1ccccc1-c1cc(C(=O)Nc2cccnc2)no1,AC50,[2],"6.31 µM [rising, partial curve]"
same,AC50,[3],"2.51 µM [falling, full curve]"
O=C(CSc1nc2c([nH]c3ccccc32)c(=O)n1-c1ccccc1F)Nc1cccc(Cl)c1,AC50,[1],"31.6 µM [falling, single point]"
CCC(=O)N1CCc2cc(S(=O)(=O)CCC(=O)Nc3cc(Cl)ccc3OC)ccc21,AC50,[1],"20 µM [falling, partial curve]"
Cc1ccc(-c2nnc3ccccc3c2C(=O)Nc2ccc(F)cc2)cc1,AC50,[1],"31.6 µM [falling, partial curve]"
Cc1ccccc1-n1c(C)nnc1SCc1nc2ccccc2s1,AC50,[1],"2.51 µM [falling, partial curve]"
COc1ccccc1Nc1nn2c(=O)c3ccc(C(=O)NCCc4ccccc4)cc3nc2s1,AC50,[1],"10 µM [falling, partial curve]"
Cc1ccn2c(Nc3ccccc3)c(-c3c[nH]c4ccccc34)nc2c1,AC50,[1],"0.0251 µM [falling, full curve]"
COc1ccccc1-c1nn(CCC(=O)Nc2ccc(C)cc2)c2nc(C)cc(C)c12,AC50,[1],"20 µM [falling, single point]"
COc1ccc(S(=O)(=O)Nc2cccc(-c3ccc(N4CCCC4)nn3)c2)cc1F,AC50,[1],"5.01 µM [falling, partial curve]"
O=C(CCn1c(SCC(=O)NCc2ccco2)nc2ccccc2c1=O)NCCc1ccccc1,AC50,[1],"3.98 µM [falling, partial curve]"
CCCCCn1c(CCCNC(=O)c2ccccc2OC)nc2ccccc21,AC50,[1],"10 µM [falling, partial curve]"
O=C(NCc1ccccc1Cl)C1=Cc2cc(Br)ccc2OC1,AC50,[1],"31.6 µM [falling, partial curve]"
CCOC(=O)c1c(C)[nH]c(C(=O)CSc2ccccc2)c1C,AC50,[1],"0.398 µM [rising, partial curve]"
